{"source": "PubChem BioAssay AID504793, Drosophila RNAi Screening Center – 2011", "purpose": "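Knock-downs allowing continued mitosis even though DNA is damaged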 (primary screen)", "system": "Drosophila S2R+ cells", "knock-down reagent": "long dsRNA against Drosophila genes, about 0.25 µg dsRNA per well", "time to read-out": "4 days of dsRNA, then 4 hours of drug before read-out", "conditions": "doxorubicin 0.5 µM for 4 hours to cause double-strand breaks, in cells also given a low, harmless dose of dsRNA against nbs to sensitise the assay", "measurement": "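Mitotic index as the number of phospho-histone H3-positive cells in each well following doxorubicin, given as raw counts without normalisation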", "scale": "mitotic cells: higher = more cells in mitosis, weaker G2 arrest", "active means": "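Genes are called active only when high mitotic counts were reproduced with independent dsRNAs and mitosis was checked for delay without damage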", "calls": "active = confirmed in follow-up tests; inactive = not confirmed", "note": "The deposit covers about 23,000 reagents; below is an unselected part of those with a known target gene and a result. Over the whole deposit, 62 (0.27%) are marked active. 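Calls come from follow-up tests whose scores are not deposited, so confirmed genes may have low counts here; counts are not normalised per plate.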 Raw values vary from plate to plate and are shown uncorrected. Reagents against one gene are numbered here."}
{"target gene": "CG4669", "reagent no.": 1, "mitotic cells, replicate 1": 5, "outcome": "inactive"}
{"target gene": "SmD1", "reagent no.": 1, "mitotic cells, replicate 1": 3, "outcome": "inactive"}
{"target gene": "SmD1", "reagent no.": 2, "mitotic cells, replicate 1": 1, "outcome": "inactive"}
{"target gene": "run", "reagent no.": 1, "mitotic cells, replicate 1": 4, "outcome": "inactive"}
{"target gene": "run", "reagent no.": 2, "mitotic cells, replicate 1": 7, "outcome": "inactive"}
{"target gene": "run", "reagent no.": 3, "mitotic cells, replicate 1": 10, "outcome": "inactive"}
{"target gene": "CG17108", "reagent no.": 1, "mitotic cells, replicate 1": 6, "outcome": "inactive"}
{"target gene": "CG17108", "reagent no.": 2, "mitotic cells, replicate 1": 9, "outcome": "inactive"}
{"target gene": "CG17108", "reagent no.": 3, "mitotic cells, replicate 1": 2, "outcome": "inactive"}

Continued (2 carried over from the part before).
{"target gene": "CG17108", "reagent no.": 2, "mitotic cells, replicate 1": 9, "outcome": "inactive"}
{"target gene": "CG17108", "reagent no.": 3, "mitotic cells, replicate 1": 2, "outcome": "inactive"}
{"target gene": "CG31419", "reagent no.": 1, "mitotic cells, replicate 1": 7, "outcome": "inactive"}
{"target gene": "CG31419", "reagent no.": 2, "mitotic cells, replicate 1": 6, "outcome": "inactive"}
{"target gene": "Cyp308a1", "reagent no.": 1, "mitotic cells, replicate 1": 6, "outcome": "inactive"}
{"target gene": "Cyp308a1", "reagent no.": 2, "mitotic cells, replicate 1": 9, "outcome": "inactive"}
{"target gene": "CG17930", "reagent no.": 1, "mitotic cells, replicate 1": 15, "outcome": "inactive"}
{"target gene": "CG17930", "reagent no.": 2, "mitotic cells, replicate 1": 8, "outcome": "inactive"}
